Data taken from the supplement of paper PMC11732987, “Enantioselective OTUD7B fragment discovery through chemoproteomics screening and high-throughput optimisation” (Communications Chemistry, 2025).
The other results are listed elsewhere or left out. The data scatter; read single values as rough.

Sequences of proteins named here, by UniProt entry; tags and fusion partners are left off. A change or cut given only in a name is not applied to a line headed by its entry. Residues count along the entry.
UniProt Q99622: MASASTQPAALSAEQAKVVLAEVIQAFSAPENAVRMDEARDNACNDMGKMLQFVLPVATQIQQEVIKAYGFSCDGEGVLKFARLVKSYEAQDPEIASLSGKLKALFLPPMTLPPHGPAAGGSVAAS
UniProt Q8NFC6: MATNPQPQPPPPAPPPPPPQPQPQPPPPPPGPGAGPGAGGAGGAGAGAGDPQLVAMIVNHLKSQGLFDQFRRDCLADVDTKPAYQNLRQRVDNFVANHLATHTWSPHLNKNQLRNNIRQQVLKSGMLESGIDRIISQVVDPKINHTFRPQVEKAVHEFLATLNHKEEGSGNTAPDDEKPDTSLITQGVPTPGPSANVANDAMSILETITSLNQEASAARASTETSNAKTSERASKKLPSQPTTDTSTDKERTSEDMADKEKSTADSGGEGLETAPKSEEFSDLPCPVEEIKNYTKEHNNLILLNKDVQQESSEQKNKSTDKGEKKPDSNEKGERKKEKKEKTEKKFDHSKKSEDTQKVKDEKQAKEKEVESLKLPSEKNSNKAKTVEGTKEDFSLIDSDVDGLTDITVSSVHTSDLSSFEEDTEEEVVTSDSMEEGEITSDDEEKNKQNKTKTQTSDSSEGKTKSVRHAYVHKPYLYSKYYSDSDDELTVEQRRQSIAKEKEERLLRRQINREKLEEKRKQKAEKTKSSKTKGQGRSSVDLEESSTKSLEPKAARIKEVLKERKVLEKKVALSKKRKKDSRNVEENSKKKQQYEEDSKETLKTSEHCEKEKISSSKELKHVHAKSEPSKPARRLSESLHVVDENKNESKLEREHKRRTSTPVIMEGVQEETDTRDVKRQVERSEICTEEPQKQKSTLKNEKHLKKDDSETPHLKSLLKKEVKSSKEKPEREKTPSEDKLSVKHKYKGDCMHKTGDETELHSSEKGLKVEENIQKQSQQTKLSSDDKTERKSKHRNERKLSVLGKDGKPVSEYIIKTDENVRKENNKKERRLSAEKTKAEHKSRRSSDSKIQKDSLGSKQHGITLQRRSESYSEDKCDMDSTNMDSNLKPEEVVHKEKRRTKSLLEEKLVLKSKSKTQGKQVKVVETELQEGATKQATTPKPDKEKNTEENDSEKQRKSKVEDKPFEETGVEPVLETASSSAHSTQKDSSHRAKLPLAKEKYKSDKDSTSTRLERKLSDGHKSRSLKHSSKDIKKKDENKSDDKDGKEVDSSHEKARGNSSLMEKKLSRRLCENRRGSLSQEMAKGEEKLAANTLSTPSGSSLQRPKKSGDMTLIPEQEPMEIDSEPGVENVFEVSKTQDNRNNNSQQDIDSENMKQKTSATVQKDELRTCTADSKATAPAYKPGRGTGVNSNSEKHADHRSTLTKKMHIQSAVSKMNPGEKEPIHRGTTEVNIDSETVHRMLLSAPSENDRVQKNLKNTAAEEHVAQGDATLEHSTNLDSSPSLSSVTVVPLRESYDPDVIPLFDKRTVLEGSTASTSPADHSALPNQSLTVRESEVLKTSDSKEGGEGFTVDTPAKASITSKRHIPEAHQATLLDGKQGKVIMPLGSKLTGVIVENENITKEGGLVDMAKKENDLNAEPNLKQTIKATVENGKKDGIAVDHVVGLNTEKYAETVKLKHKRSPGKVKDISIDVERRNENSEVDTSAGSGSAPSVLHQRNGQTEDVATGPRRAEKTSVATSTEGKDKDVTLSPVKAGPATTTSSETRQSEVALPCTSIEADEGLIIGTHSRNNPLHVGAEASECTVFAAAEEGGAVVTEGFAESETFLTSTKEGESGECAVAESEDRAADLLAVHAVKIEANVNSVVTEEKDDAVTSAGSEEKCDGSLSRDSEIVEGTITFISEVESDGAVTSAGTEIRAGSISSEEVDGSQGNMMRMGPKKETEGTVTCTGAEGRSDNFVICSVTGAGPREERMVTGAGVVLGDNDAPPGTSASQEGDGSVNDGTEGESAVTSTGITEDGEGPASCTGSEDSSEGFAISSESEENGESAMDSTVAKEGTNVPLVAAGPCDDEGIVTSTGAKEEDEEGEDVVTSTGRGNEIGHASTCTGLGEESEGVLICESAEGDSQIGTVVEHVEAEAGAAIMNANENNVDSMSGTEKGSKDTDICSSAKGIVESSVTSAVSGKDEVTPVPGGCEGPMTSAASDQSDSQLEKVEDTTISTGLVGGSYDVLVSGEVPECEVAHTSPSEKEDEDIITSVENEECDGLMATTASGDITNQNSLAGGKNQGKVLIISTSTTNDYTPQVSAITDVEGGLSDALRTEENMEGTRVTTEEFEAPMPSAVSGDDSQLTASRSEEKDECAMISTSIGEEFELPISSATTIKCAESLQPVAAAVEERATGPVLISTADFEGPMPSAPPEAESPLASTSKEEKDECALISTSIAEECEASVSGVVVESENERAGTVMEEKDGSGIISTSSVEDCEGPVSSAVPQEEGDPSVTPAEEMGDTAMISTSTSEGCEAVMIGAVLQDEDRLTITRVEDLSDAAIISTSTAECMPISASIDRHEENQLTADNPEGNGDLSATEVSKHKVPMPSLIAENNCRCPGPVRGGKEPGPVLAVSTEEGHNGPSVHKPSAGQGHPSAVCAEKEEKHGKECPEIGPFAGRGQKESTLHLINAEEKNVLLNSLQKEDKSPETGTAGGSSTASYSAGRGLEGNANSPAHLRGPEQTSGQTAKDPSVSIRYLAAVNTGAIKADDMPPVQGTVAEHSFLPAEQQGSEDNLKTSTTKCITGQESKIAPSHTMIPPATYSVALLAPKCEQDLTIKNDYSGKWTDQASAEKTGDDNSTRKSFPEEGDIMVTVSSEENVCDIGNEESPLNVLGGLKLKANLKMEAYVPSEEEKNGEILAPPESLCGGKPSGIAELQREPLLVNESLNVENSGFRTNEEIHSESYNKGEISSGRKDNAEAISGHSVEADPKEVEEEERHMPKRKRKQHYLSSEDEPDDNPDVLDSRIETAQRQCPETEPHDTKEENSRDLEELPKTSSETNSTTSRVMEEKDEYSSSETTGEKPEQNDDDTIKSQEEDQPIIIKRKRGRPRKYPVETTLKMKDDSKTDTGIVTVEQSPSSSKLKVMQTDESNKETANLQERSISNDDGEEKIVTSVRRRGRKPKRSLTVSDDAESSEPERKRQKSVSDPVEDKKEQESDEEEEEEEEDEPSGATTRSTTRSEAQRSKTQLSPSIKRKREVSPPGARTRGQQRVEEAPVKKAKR
UniProt Q9NPI1: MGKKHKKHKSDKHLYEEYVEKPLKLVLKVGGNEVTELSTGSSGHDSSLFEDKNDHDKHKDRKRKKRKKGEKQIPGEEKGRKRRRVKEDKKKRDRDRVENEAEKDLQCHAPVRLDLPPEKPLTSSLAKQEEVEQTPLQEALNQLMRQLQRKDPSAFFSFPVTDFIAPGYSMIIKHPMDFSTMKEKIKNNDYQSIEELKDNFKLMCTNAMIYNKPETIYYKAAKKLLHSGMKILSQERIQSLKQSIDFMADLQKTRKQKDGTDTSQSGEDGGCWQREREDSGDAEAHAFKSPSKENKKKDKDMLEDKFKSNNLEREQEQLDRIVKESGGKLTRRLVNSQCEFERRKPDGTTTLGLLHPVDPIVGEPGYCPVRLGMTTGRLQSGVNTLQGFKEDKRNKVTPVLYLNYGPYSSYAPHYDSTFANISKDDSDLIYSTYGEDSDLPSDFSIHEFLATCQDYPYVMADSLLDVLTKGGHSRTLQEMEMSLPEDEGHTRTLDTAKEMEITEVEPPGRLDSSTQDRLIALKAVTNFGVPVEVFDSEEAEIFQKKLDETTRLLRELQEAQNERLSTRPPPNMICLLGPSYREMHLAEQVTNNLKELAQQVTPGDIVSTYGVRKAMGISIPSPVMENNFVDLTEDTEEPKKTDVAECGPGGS
UniProt Q8IYL3: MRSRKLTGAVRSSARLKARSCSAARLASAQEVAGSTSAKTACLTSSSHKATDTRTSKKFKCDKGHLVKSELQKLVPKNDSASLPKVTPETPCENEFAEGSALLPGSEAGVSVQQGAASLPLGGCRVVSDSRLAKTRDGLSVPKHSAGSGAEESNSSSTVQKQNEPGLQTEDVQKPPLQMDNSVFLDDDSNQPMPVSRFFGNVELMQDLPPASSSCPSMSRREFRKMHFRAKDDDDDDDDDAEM
UniProt O60566, 733-752: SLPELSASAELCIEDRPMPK
UniProt Q9BSJ5: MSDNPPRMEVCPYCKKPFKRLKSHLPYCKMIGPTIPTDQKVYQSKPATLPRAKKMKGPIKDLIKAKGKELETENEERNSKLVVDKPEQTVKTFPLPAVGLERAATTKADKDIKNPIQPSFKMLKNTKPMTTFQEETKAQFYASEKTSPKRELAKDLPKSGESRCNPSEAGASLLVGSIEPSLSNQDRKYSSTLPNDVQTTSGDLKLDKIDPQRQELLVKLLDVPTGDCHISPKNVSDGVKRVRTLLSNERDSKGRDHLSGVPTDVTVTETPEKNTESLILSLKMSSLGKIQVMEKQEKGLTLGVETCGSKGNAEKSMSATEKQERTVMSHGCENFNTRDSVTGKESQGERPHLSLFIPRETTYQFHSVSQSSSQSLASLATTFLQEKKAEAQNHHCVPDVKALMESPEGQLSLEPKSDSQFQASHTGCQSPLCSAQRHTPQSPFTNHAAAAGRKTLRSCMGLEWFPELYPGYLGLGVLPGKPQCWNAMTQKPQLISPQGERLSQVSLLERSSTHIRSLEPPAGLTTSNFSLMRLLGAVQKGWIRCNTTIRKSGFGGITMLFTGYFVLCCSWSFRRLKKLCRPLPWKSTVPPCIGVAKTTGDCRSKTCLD
UniProt P47756, 196-215: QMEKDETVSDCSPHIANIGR
UniProt Q6P1X6: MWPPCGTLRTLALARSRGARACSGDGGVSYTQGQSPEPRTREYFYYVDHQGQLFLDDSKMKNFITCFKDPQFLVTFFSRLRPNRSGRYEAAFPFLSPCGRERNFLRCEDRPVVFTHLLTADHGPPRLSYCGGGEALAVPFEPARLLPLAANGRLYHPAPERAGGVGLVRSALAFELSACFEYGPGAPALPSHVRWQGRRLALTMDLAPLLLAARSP
UniProt A6QL63: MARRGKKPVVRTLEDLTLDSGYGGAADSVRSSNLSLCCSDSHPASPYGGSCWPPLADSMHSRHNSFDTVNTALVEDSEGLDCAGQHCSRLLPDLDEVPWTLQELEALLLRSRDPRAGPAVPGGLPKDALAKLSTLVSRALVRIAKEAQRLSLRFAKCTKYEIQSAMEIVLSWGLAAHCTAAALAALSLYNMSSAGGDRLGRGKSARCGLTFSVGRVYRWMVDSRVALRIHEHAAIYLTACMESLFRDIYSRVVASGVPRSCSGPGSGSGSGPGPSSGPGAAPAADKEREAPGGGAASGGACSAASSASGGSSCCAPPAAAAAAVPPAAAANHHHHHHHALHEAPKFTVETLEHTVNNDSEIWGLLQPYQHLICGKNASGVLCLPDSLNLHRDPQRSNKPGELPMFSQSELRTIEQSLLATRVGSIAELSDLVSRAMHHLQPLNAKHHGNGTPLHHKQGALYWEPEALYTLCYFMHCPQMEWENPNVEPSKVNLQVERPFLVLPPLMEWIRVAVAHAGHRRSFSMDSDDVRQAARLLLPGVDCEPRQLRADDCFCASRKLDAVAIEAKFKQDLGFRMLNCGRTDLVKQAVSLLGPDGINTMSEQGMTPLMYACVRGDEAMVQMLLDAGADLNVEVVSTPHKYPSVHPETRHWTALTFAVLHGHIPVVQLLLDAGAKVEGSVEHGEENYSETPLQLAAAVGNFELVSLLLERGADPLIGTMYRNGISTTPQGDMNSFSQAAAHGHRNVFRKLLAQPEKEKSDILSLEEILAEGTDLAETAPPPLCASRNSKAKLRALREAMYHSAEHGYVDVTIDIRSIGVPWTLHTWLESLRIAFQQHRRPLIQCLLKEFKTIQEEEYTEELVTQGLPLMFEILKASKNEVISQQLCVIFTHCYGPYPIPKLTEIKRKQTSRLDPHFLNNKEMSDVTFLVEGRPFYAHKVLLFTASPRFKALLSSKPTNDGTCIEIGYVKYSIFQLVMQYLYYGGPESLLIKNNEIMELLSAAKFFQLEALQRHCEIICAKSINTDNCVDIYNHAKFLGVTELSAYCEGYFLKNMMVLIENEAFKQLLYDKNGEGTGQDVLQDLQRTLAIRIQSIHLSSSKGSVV
UniProt P42574, 165-186: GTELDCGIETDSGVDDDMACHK
UniProt Q86X55, 62-81: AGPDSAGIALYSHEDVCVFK
UniProt Q9BPX7: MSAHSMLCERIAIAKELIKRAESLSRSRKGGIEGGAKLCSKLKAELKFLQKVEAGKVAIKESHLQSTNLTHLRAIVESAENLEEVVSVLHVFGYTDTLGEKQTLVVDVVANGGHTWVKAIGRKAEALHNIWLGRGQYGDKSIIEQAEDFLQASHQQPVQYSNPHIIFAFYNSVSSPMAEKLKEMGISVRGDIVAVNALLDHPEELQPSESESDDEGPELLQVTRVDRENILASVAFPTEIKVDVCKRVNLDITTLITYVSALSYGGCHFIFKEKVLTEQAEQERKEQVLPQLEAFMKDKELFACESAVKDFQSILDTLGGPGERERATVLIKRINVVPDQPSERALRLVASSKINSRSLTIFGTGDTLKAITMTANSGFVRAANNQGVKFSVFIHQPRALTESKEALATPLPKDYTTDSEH
UniProt Q8TCD1: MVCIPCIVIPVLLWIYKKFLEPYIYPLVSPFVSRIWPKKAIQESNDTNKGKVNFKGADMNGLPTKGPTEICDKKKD

Columns and labels:
[1] = compound: ClCC(=O)N[C@@H]1CCCc2ccccc12; assay: log2 mean competition ratio of IA-DTB cysteine labelling (DMSO/compound) (log2 ratio); higher = stronger cysteine engagement by compound; settings: treatment time: 4 h, cell line lysate: HEK293T
Method: (§1)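 IA-DTB competitive cysteine chemoproteomics in HEK293T RIPA lysate. Lysates were treated with compound 29 or 30 at 50 or 200 µM for 4 h, then IA-DTB (500 µM, 1 h), trypsin-digested, NeutrAvidin-enriched and analysed by diaPASEF. Competition ratio = intensity DMSO / intensity compound (n=4 treated, n=64 DMSO); binding: mean log2 CR ≥ 1 and p ≤ 0.05 plus QC filters. Target is the cysteine site.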

[2] = compound: ClCC(=O)N[C@H]1CCCc2ccccc12; assay: as above; settings: treatment time: 4 h, cell line lysate: HEK293T
Method: as §1

Target	log2 mean competition ratio ([1]; 50 µM)	log2 mean competition ratio ([1]; 200 µM)	log2 mean competition ratio ([2]; 50 µM)	log2 mean competition ratio ([2]; 200 µM)
BRCA2 C2212 (UniProt P51587)	0.00319	-0.264		
BPTF C1156	-0.249	0.173	-0.408	-0.369
CARMIL1 C235	-0.176	-0.0283	-0.211	-0.0696
C12orf57 C73 (UniProt Q99622)	0.311	0.207	0.35	0.223
BOD1L1 C749 (UniProt Q8NFC6)	0.108	0.486	0.165	0.178
BRD7 C107 (UniProt Q9NPI1)	-0.0587	0.197	-0.321	0.304
C1orf174 C42 (UniProt Q8IYL3)	0.577	-0.361	0.285	-0.247
BPTF C1357	-0.0491	0.278	-0.177	0.352
BUB1B C744 (UniProt O60566)	0.233	0.129	0.19	0.00712
CARS1 C27	-0.223	-0.249	0.401	-0.00402
BORCS6 C67 (UniProt Q96GS4)	0.219	-0.14	0.148	-0.437
C17orf80 C307 (UniProt Q9BSJ5)	0.0788	0.207	-0.0714	0.227
BRCA1 C903 (UniProt P38398)	-0.0396	0.0704	-0.194	0.166
CAPZB C206 (UniProt P47756)	-0.518	-0.00515	0.000226	0.0119
BOD1L1 C285 (UniProt Q8NFC6)	-0.273	-0.548	-0.0909	-0.404
BPTF C445	-0.182	-0.0523	-0.583	0.00392
CAND1 C571	0.0917	-0.0957	0.12	-0.0408
C2orf69 C230 (UniProt Q8N8R5)	-0.134	0.205	-0.0667	0.379
CBFA2T2 C573 (UniProt O43439)	0.078	0.000623	0.143	-0.125
C8orf82 C98 (UniProt Q6P1X6)	0.105	-0.475	0.279	-0.232
CARMIL1 C708	0.0757	0.0494	0.00812	-0.0834
BTBD11 C1027 (UniProt A6QL63)	-0.272	-0.00841	-0.532	-0.301

Target	log2 mean competition ratio ([1]; 50 µM)	log2 mean competition ratio ([1]; 200 µM)	log2 mean competition ratio ([2]; 50 µM)	log2 mean competition ratio ([2]; 200 µM)
CAMKMT C208 (UniProt Q7Z624)	-0.239	-0.255	0.376	-0.159
CASP3_(C170,C170,C184,C184) (UniProt P42574)	-0.166	-0.464	0.213	-0.181
CADPS2 C1097	-0.00684	-0.213	-0.657	-0.17
C15orf39 C210 (UniProt Q6ZRI6)	0.154	-0.0102	0.688	0.3
BRCA2 C2473 (UniProt P51587)	-0.103	0.0336	-0.217	-0.223
CAND2 C1139 (UniProt O75155)	0.0626	-0.221	-0.278	-0.179
C12orf57 C44 (UniProt Q99622)	0.0615	0.396	0.205	0.609
CARM1 C78 (UniProt Q86X55)	-0.243	-0.0661	-0.203	-0.198
CAND1 C71	-0.101	-0.335	0.185	-0.143
C7orf25 C8 (UniProt Q9BPX7)	0.185	0.342	-0.354	0.309
CAMSAP2 C675 (UniProt Q08AD1)	-0.0956	-0.104	0.0473	-0.0342
BRCA1 C1270 (UniProt P38398)	0.264	0.152	0.293	-0.11
BOD1L1 C2438 (UniProt Q8NFC6)	-0.0449	-0.316	0.149	-0.123
CBL C508 (UniProt P22681)	0.0586	0.0923	0.28	0.33
BPTF C2888	-0.0169	0.0181	0.0544	0.113
BUB1B C900 (UniProt O60566)	0.117	0.328	0.111	0.19
CADM1 C313 (UniProt Q9BY67)	-0.0884	0.177	-0.00334	0.164
C17orf75 C182 (UniProt Q9HAS0)	0.0162	0.0148	-0.0854	-0.0845
BRAP C47 (UniProt Q7Z569)	-0.17	0.0681	-0.632	-0.0127
C18orf32 C71 (UniProt Q8TCD1)	-0.29	0.132	-0.0219	0.261
BRCC3 C228 (UniProt P46736)	0.0154	0.0478	-0.74	-0.06

Nothing new here: an excerpt of the list.
Target	log2 mean competition ratio ([1]; 50 µM)	log2 mean competition ratio ([1]; 200 µM)	log2 mean competition ratio ([2]; 50 µM)	log2 mean competition ratio ([2]; 200 µM)
CASP3_(C170,C170,C184,C184) (UniProt P42574)	-0.166	-0.464	0.213	-0.181
CADPS2 C1097	-0.00684	-0.213	-0.657	-0.17
C15orf39 C210 (UniProt Q6ZRI6)	0.154	-0.0102	0.688	0.3
